Patent EP3171885B1, “PEPTIDE HYDROLYSATE OF SNAILS, PEPTIDE FRACTIONS, PRODUCTION METHOD, USE AND COMPOSITIONS FOR INHIBITING THE ANGIOTENSIN CONVERTING ENZYME” (Drevet, Pascal, priority 2014, dated 2016)

Sequences of proteins named here, by UniProt entry; tags and fusion partners are left off. Residues count along the entry.
UniProt P12821, 30-1306: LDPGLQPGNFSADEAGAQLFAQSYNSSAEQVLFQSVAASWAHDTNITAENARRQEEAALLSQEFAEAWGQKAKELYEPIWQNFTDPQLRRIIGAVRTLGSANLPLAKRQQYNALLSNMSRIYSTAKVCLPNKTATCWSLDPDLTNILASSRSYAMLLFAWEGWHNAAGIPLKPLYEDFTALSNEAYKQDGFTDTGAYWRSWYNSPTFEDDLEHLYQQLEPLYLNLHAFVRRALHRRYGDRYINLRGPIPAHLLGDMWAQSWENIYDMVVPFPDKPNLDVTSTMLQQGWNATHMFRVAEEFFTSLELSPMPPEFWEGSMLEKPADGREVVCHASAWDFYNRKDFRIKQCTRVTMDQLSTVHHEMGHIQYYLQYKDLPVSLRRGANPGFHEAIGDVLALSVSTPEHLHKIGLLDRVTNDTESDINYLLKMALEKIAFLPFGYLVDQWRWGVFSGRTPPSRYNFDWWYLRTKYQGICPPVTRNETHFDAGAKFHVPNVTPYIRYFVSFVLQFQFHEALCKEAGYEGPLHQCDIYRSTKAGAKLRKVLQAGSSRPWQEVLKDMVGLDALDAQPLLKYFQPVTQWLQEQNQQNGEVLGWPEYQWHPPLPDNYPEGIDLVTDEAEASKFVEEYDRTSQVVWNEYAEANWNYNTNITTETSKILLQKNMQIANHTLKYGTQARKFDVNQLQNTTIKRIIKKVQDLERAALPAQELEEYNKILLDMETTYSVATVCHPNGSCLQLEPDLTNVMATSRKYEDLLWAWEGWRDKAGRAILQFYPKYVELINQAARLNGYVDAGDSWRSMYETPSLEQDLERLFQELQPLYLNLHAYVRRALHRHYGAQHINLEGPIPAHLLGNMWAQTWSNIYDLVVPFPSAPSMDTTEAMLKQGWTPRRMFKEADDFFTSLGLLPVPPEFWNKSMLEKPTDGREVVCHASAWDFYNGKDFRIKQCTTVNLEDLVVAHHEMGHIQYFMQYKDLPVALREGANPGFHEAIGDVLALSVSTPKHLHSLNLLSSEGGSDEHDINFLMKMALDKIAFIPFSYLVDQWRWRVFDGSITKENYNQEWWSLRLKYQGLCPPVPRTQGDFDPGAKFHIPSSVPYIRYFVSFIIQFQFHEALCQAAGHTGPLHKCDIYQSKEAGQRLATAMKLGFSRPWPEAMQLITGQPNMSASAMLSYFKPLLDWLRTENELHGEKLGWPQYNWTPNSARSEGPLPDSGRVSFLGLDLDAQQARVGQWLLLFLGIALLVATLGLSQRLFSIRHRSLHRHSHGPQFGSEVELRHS

Target: enzyme de conversion de l'angiotensine (ECA) (Homo sapiens, UniProt P12821)
Assay: biochemical
Conditions: substrate HHL 5 mM, 37°C, 30 minutes, sodium borate buffer pH 8,3, detection at 228 nm
Method: Brièvement, cette méthode repose sur l'hydrolyse du substrat Hippuryl-L-Histidyl-L-Leucine (HHL) par l'ECA pour produire de l'acide hippurique (HA) et de l'Histydil-Leucine. Après incubation à 37°C pendant 30 minutes dans du tampon borate de sodium pH 8,3, la réaction est arrêtée par addition de HCI. La séparation du substrat HHL et du produit HA est réalisé par chromatographie liquide haute pression en phase inversée (RP-HPLC) sur une colonne C18 (Kinetex). L'élution se fait par un mélange d'eau (75% v/v) et d'acétonitrile (25% V/V).
La comparaison entre la concentration de HA produite pour chaque concentration d'échantillon avec celle obtenue sans addition de peptide permet la détermination de l'IC50.
A titre de témoin positif, le captopril est également testé en parallèle de l'hydrolysat, des fractions et des peptides. Le témoin négatif est le substrat HHL seul, sans ECA, dilué dans du tampon borate pH 8,3. L'échantillon est le peptide, la fraction ou l'hydrolysat total à tester.
Le pourcentage d'inhibition de l'ECA est calculé selon la formule suivante : Pourcentage d'inhibition ECA (%) = (ASCHA ([…])−ASCHA (Echantillon))/(ASCHA ([…])−ASCHA (HHL)) × 100 [formula]

IC50: 303 µM
SMILES: N[C@@H](Cc1ccc(O)cc1)C(=O)NCC(=O)O [YG, Tyrosine-Glycine]
